Drawing on article PMC1769425, this text covers binding for one molecule.

The chains behind the UniProt entries cited, without tags or fusion partners.
UniProt P70039: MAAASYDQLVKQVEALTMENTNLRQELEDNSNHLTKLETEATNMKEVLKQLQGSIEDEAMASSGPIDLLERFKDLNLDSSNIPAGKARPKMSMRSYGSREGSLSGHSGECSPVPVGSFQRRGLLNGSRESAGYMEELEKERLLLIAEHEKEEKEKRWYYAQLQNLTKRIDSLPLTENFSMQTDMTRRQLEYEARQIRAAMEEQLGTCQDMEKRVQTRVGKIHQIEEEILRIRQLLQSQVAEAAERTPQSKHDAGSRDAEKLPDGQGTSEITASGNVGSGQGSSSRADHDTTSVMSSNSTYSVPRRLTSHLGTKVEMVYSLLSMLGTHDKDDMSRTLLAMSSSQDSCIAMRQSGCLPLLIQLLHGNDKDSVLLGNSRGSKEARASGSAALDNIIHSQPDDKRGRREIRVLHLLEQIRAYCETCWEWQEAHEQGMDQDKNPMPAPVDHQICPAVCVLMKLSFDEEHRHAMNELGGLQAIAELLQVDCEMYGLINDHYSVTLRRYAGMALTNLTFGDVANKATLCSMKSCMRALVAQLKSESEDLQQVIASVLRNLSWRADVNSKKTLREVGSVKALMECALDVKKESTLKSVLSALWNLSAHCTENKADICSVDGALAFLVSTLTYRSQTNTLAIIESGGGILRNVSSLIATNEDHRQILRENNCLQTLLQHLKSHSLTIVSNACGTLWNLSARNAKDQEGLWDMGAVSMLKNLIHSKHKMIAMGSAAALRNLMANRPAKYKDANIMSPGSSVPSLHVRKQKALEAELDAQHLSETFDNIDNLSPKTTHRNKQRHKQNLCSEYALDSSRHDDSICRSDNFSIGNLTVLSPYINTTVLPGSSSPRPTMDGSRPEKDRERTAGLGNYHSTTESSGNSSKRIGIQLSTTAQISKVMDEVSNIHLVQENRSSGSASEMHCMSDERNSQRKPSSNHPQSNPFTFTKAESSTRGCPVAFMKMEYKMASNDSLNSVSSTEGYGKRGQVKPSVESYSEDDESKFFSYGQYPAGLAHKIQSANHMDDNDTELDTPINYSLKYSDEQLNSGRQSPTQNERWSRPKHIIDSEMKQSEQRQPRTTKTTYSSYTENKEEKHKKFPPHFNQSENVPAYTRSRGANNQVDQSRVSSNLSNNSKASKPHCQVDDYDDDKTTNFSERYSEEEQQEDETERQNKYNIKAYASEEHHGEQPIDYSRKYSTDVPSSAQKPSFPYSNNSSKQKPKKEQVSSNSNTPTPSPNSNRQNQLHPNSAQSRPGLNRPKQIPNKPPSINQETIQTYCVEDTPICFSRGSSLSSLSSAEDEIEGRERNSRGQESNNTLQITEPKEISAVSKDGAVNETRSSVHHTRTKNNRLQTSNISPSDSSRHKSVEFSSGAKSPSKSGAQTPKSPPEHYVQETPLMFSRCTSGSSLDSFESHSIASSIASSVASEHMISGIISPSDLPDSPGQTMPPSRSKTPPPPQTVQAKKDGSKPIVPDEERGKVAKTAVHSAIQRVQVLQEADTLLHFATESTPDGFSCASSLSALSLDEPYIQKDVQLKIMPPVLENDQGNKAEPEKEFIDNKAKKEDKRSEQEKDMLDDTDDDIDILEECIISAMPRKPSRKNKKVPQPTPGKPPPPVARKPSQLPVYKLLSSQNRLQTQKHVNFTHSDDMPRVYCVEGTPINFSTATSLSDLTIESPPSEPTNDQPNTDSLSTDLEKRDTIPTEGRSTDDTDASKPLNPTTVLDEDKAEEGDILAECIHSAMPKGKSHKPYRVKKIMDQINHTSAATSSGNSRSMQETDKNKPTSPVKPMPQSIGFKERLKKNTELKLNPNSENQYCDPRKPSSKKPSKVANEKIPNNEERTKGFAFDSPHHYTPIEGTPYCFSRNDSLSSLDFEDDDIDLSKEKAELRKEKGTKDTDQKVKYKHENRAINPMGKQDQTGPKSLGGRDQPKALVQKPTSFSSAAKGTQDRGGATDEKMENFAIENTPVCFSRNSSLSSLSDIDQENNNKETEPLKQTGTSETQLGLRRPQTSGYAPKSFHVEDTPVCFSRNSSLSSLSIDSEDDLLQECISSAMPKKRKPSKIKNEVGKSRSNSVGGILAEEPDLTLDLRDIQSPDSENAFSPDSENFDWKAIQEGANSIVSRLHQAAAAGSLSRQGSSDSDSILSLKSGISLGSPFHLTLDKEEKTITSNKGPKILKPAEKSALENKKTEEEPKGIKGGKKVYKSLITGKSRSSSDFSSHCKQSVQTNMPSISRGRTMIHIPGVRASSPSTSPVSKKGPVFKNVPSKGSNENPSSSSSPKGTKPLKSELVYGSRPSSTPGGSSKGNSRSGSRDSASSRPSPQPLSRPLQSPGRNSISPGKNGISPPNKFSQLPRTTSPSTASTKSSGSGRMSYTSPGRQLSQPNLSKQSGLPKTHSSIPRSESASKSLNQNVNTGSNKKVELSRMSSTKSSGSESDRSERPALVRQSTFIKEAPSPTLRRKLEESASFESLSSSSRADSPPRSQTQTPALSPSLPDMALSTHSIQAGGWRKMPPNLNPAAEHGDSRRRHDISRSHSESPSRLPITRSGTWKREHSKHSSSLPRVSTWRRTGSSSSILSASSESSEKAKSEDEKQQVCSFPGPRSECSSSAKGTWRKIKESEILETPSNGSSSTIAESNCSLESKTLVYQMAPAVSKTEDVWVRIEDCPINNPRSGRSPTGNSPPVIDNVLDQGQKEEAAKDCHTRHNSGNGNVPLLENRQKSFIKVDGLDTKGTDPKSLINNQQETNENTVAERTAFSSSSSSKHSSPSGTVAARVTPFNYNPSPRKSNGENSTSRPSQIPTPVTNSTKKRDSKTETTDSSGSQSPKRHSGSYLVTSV

This experiment concerns the target full-length APC, endogenous in Xenopus egg extract (X. laevis (endogenous in egg extract)) (UniProt P70039). Briefly: visual immunoprecipitation (VIP); interphase X. laevis egg extract, pretreated with 40 μM nocodazole; bait (endogenous, or recombinant fragment added to the extract) held on antibody-coated protein-A magnetic beads; fluorescent recombinant prey added at near endogenous concentration (e.g. 500 nM), 15 min at 20 °C; confocal read-out, IgG control beads subtracted; only the binder purified.

No constants are given. Whether binding was seen depends on the method and setting. Some results given as binding are weak or reduced against the parent protein; the word gives no strength. Where a sequence is shown, tags or fusion partners need not be part of it.

B1: XKCM1-EGFP (protein, UniProt Q91636 1-730)
chain: MERLVATRLVTGLAVKIMRSNGVIHNANITSVNMDRSSVNVEWKEGEANKGKEISFADVISVNPELLDAVLAPTNVKENMPPQRNVSSQNHKRKTISKIPAPKEVAAKNSLLSESGAQSVLRERSTRMTAIHETLPYENEMEAESTPLPIQQNSVQARSRSTKVSIAEEPRLQTRISEIVEESLPSGRNNQGRRKSNIVKEMEKMKNKREEQRAQNYERRMKRAQDYDTSVPNWEFGKMIKEFRATMDCHRISMADPAEEHRICVCVRKRPLNKQELSKKEIDIISVPSKNIVLVHEPKLKVDLTKYLENQAFRFDFSFDETATNEVVYRFTARPLVQSIFEGGKATCFAYGQTGSGKTHTMGGDFSGKSQNVSKGVYAFASRDVFLLLDQPRYKHLDLDVFVTFFEIYNGKVFDLLNKKTKLRVLEDAKQEVQVVGLLEKQVISADDVFKMIEIGSACRTSGQTFANTSSSRSHACLQIILRRGSKLHGKFSLVDLAGNERGVDTASADRITRMEGAEINRSLLALKECIRALGQNKSHTPFRESKLTQILRDSFIGENSRTCMIAMLSPGFNSCEYTLNTLRYADRVKELSPQNAETNDDNLQMEDSGGSHASIEGLQLQDDFLLKDEELSTHNSFQDALNRVGELEDKAVDELRELVQKEPEWTNLLQMTEQPDYDLENFVMQAEYLIQERSKVLIALGDSINSLRLALQVEEQASKQISKKKRSNK
Consider B1, for which the binding result is listed as “binds”.
